From patent publication US20030147809A1 come the findings set out here.

The chains behind the UniProt entries cited, without tags or fusion partners. Residues count along the entry.
UniProt P43121, residues 24-559: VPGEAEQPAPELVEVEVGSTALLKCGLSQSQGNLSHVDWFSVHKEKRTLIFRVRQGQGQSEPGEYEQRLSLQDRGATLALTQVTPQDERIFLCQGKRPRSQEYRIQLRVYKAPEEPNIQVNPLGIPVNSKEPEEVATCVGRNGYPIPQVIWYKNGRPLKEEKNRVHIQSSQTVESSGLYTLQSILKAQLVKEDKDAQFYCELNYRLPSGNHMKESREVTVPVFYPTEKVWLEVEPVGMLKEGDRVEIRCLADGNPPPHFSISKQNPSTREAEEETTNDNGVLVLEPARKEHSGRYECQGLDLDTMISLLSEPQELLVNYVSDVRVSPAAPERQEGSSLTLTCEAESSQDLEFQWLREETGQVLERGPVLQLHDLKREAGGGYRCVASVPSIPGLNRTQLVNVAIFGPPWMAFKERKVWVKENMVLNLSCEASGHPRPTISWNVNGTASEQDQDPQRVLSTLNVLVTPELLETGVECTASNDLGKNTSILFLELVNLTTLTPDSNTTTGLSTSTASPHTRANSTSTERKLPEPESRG

The labels stand for the following.
B1: c6.9 (antibody, IgG2, V domains shown)
VH: QVQLEQSGPGLVKPSETLSLTCTVSGGSISSGTYHWSWIRQHPGRGLEWIGYIYYSGSTYHNPSLKSRITISVDTSKNQFSLKLSSVTAADTAVYYCARGGDGYRYWGQGTLVTVSS
VL: EIVMTQSPATLSVSPGERATLSCRASQSISNNFAWYQQKPGQAPRLLIFGASTRATGIPARFSGSGSGTEFTLTISSLQSEDFAVYYCQQYNNWPRTFGQGTKVEIK
B2: c6.12 (antibody, IgG2, V domains shown)
VH: QVQLEQSGPGLVKPSETLSLTCTVSGGSISSGTYHWSWIRQHPGRGLEWIGYIYYSGSTYHNPSLKSRITISVDTSKNQFSLKLSSVTAADTAVYYCARGGDGYRYWGQGTLVTVSS
VL: EIVMTQSPATLSVSPGERATLSCRASQSISNNFAWYQQKPGQAPRLLIFGASTRATGIPARFSGSGSGTEFTLTISSLQSEDFAVYYCQQYNNWPRTFGQGTKVEIK
B3: c3.22 (antibody, IgG2, V domains shown)
VH: QVQLQESGPGLVKPSQTLSLTCTVSGGSISSGGYYWTWIRQHPGKGLEWIGFIYYSGSTYYNPSLKSRVTISVDTSKNQFSLKLSSVTAADTAVYYCAREGDGFDYWGQGTLVTVSS
VL: DIQMTQSPSSLSASVGDRVTITCRASQGIRNDLGWYQQKPGKAPKRLIYAASSLQSGVPSRFSGSGSGTEFTLTISSLQPEDFATYYCLQHNSYPLTFGGGTKVEIK
B4: c6.2 (antibody, IgG2, V domains shown)
VH: QVQLQESGPGLVKPSETLSLTCTVSGGSISTYYWSWIRQPPGKGLEWIGYIYYTGNTYYNPSLKSRVTVSVDTSKNQFSLKLNSVTAADTAVYYCARDPGQWLVPDAFDIWGQGTMVSVSS
VL: DIVMTQSPLSLPVIPGEPASISCRSSQSLLQSNGNNYLDWYLQKPGQSPQLLIYLGSNRASGVPDRFSGSGSGTDFTLKISRVEADDVGIYYCMQALQIPLTFGGGTKVEIK
B5: c3.10 (antibody, IgG2, V domains shown)
VH: QVQLQESGPGLVKPSETLSLTCTVSGGSISSYYWSWIRQPPGKGLEWIGYIYYTWTTNYNPSLKSRVTISVDTSKNQFSLRLSSVTAADTALYYCARDQGQWLLPDAFDIWGQGTMVTVSS
VL: DIQMTQSPSSLSASVGDRVTITCRASQSISNYLNWYQQKPGKAPKLLIYGASSLQSGVPSRFSGSGSGTDFTLTISSLQPEDFATYYCRQSYSTPPECSFGQGTKLEIK
B6: c3.27 (antibody, IgG2, V domains shown)
VH: QVQLQESGPGLVKPSETLSLTCTVSGGSISSYYWSWIRQPPGKGLEWIGYIYYTWTSNYNPSLKSRVTISVDTSKNQFSLRLSSVTAADTAVYYCARDQGQWLLPDAFDIWGQGTMVTVSS
VL: DIQMTQSPSSLSASVGDRVTITCRASQGIRNDLGWYQQKPGKAPKRLIYAASSLQSGVPSRFSGSGSGTEFTLTISSLQPEDFATYYCLQHNSYPWTFGQGTKVEIK
B7: c3.45 (antibody, IgG2, V domains shown)
VH: QVQLVQSGAEVKKPGASVKVSCKASGYTFFSYGFSWVRQAPGQGLEWLGWISAYNGNTNYAQKLQGRVTMTTDTSTSTAYMELRSLRSDDTAVYYCARETKVRGVHYYGMDVWGQGTTVTVSS
VL: DIVMTQSPDSLAVSLGERATIICKSSQSILYSSNNKNYLGWYQQKPGQPPKLLIYWASTRESGVPARFSGSGSGTDFTLTINSLQAEDVAVYYCQQYYSTPRSFGQGTMVEIK

Results are given in words; binding and its absence hold for the method and conditions named. Some entries that bind do so weakly or less than the wild type.

This assay concerns the target MUC18 antigen coated on ELISA plates (hybridoma screening) (human) (UniProt P43121). Put plainly: antigen-specific ELISA of hybridoma supernatants on antigen coated plates.
For the molecule B1, the binding result is given as “binds”.

As to B2, the binding result is recorded as “binds”. The result for B3 reads “binds”.

Consider B4, for which the binding entry is “binds”. Consider B5, for which the binding result was “binds”.

For the molecule B6, the binding entry was “binds”. For the molecule B7, the binding entry is listed as “binds”.
